For part of these data: Some peptides are written in HELM: one residue between dots, names in brackets for other building blocks, links after the first $. Where no end group is shown, it is not given here.

A short description of the first data set: general procedure: peptide synthesis; TentaGel S RAM (500 mg, 0.22 mmol/g; printed for Ala-G1,2,3-KL only). Particulars: whole synthesis.
Take (KL)8(KKL)4(KKL)2KKLC-NH2: the isolated yield was found to be 6%.
In turn, “PEPTIDE1{K.L.K.K.L.K.K.L.K.G.S.C.[am]}|PEPTIDE2{K.L.K.K.L.K.K.L}|PEPTIDE3{K.L.K.K.L}|PEPTIDE4{K.L.K.K.L}|PEPTIDE5{K.L}|PEPTIDE6{K.L}|PEPTIDE7{K.L}|PEPTIDE8{K.L}$PEPTIDE1,PEPTIDE2,9:R3-8:R2|PEPTIDE1,PEPTIDE3,6:R3-5:R2|PEPTIDE2,PEPTIDE4,6:R3-5:R2|PEPTIDE1,PEPTIDE5,3:R3-2:R2|PEPTIDE2,PEPTIDE6,3:R3-2:R2|PEPTIDE3,PEPTIDE7,3:R3-2:R2|PEPTIDE4,PEPTIDE8,3:R3-2:R2$$$V2.0” had an isolated yield of 9%.
On the same count and under the same terms, for (kl)8(kkl)4(kkl)2kgsc-NH2 the value was 5%.
On the same count and under the same terms, for RLRLKGSC-NH2 the value was 51%.
Substance (K)8(KK)4(KK)2KGSC-NH2 yielded an isolated yield of 12%.
The substance (KL)2KGSC-NH2 displayed an isolated yield of 60%.
The same measure, in the same setting: for (KL)8(KLK)4(KLK)2KGSC-NH2 the value was 7%; for (LK)8(KLK)4(KLK)2KGSC-NH2, 4%; for (RL)8(KRL)4(KRL)2KGSC-NH2, 2%.
Still for that read-out and setting: for (RL)4(KRL)2KGSC-NH2 the value was 38%.
Still for that read-out and setting: for (KL)4(KKL)2KGSC-NH2 the value was 41%.

The next data set is described as follows: general procedure: peptide synthesis; TentaGel S RAM. Particulars: whole synthesis.
On to (KL)8(KKL)4(KKL)2KGSA-NH2, for which the isolated yield is 5%.

(Values after patent US20240108753A1 (NUNTIUS THERAPEUTICS LIMITED, priority 2021, published 2024).)
